The results are deposited in PubChem (AID2323; NCATS, 2010).

By UniProt entry, the sequences of proteins in these tests, tags left out. Residues count along the entry.
UniProt P02791, 2-175 limits assumed, target on record: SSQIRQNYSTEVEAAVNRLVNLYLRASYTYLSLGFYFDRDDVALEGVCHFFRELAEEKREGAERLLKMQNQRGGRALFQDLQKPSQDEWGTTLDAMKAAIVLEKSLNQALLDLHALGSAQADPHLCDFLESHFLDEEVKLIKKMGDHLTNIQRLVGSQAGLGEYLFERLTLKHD

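A displacement test on horse apoferritin: compounds compete with a fluorescent probe for the anesthetic pocket, and the drop in probe fluorescence is measured 10 minutes later.
Each compound was tested as a dilution series of about 7 points, from roughly 0.025 to 77 µM.
Potency is the fitted half-maximal concentration (AC50) for probe displacement; a lower value means stronger binding at the anesthetic site.
Each call comes from the curve class and fitted AC50, converted to a score; a score of 1–39 is filed inconclusive, which applies to all of these rows, whether the curve is partial or full.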

Values are in µM.
All entries here are filed as inconclusive.
Only part of the assay is shown, chiefly results filed as inconclusive.
A potency from a partial, single-point or poor curve is only a rough figure.
Some entries filed as inconclusive have a full curve.
Activity scores are not listed here.
An entry listed twice with the same setting is a separate test.

| SMILES | fitted potency (µM) | remark |
|---|---|---|
| `OCc1cc(C(O)CNCCCCCCOCCCCc2ccccc2)ccc1O` (stereo unspecified) | 14.13 | inhibitor, full curve |
| `Cc1ccc(O)c(N=Nc2ccccc2)n1` | 39.81 | inhibitor, partial curve |
| `COc1ccc2c(c1)/C(=C/c1cnc[nH]1)C(=O)N2` | 35.48 | inhibitor, partial curve |
| `CN(C)c1ccc(/C=C2\C(=O)Nc3ccccc32)cc1` | 15.85 | inhibitor, partial curve |
| `Oc1ccc(C2CNCc3sccc32)cc1O` (stereo unspecified) | 39.81 | inhibitor, partial curve |
| `CCN(CC)C(=S)SSC(=S)N(CC)CC` | 35.48 | inhibitor, partial curve |
| `CC(C)(C)[C@]1(O)CCN2CC3c4ccccc4CCc4cccc(c43)[C@@H]2C1` (stereo partly specified) | 14.13 | inhibitor, full curve |
| `O=C(Nc1ccc([N+](=O)[O-])cc1Cl)c1cc(Cl)ccc1O` | 28.18 | inhibitor, partial curve |
| `C[C@@H](NC(=O)/C(C#N)=C/c1ccc(O)c(O)c1)c1ccccc1` | 31.62 | inhibitor, partial curve |
| `CN1CCN(C2=Nc3ccccc3Oc3ccc(Cl)cc32)CC1` | 25.12 | inhibitor, partial curve |
| `O[Si](CCCN1CCCCC1)(c1ccc(F)cc1)C1CCCCC1` (stereo unspecified) | 22.39 | inhibitor, partial curve |
| `Brc1ccc([C@H]2CN3CCSC3=N2)cc1` | 39.81 | inhibitor, partial curve, poor fit |
| `Oc1ccc(C2CNCCc3c2cc(O)c(O)c3Cl)cc1` (stereo unspecified) | 17.78 | inhibitor, full curve |
| `O=[N+]([O-])c1ccc(CSc2ncnc3c2ncn3[C@@H]2O[C@H](CO)[C@H](O)[C@H]2O)cc1` | 35.48 | inhibitor, partial curve |
| `CC(C)(Sc1ccc(CCN(CCCCC2CCCCC2)C(=O)NC2CCCCC2)cc1)C(=O)O` | 17.78 | inhibitor, partial curve |
| `CN(C)C(=O)C(CCN1CCC(O)(c2ccc(Cl)cc2)CC1)(c1ccccc1)c1ccccc1` | 19.95 | inhibitor, full curve |
| `CC(=O)N[C@@H](Cc1c[nH]c2ccccc12)C(=O)OCc1cc(C(F)(F)F)cc(C(F)(F)F)c1` | 15.85 | inhibitor, full curve |
| `CC1=C(/C=C/C(C)=C/C=C/C(C)=C/C(=O)O)C(C)(C)CCC1` | 28.18 | inhibitor, partial curve |
| `CC1(C)CCC2=C(O1)c1ccccc1C(=O)C2=O` | 15.85 | inhibitor, full curve |
| `CC(C)N(CCC(=O)c1ccc2ccccc2c1)Cc1ccccc1` | 50.12 | inhibitor, single point |
| `CCCCCCCCCCCCCC(=O)O[C@@H]1[C@@H](C)[C@@]2(O)[C@@H](C=C(CO)C[C@@]3(O)C(=O)C(C)=C[C@@H]23)C2C(C)(C)[C@@]21OC(C)=O` (stereo partly specified) | 19.95 | inhibitor, partial curve |
| `Ic1ccccc1CNC1C2CCN(CC2)C1C(c1ccccc1)c1ccccc1` (stereo unspecified) | 31.62 | inhibitor, partial curve |
| `CCN(CCCl)Cc1ccccc1Br` | 31.62 | inhibitor, partial curve |
| `Oc1cc2c(c(Cl)c1O)CCNCC2c1ccccc1` (stereo unspecified) | 28.18 | inhibitor, partial curve |
| `Nc1c(S(=O)(=O)O)cc(Nc2ccc(Nc3nc(Cl)nc(Nc4ccc(S(=O)(=O)O)cc4)n3)c(S(=O)(=O)O)c2)c2c1C(=O)c1ccccc1C2=O` | 5.012 | inhibitor, partial curve |
| `Cc1cccc(C#Cc2ccccc2)n1` | 39.81 | inhibitor, partial curve |
| `CSc1ccc2c(c1)C(N1CCN(C)CC1)Cc1ccccc1S2` (stereo unspecified) | 4.467 | inhibitor, full curve |
| `N#C/C(=C\c1ccc(O)c(O)c1)C(=O)Nc1ccccc1` | 12.59 | inhibitor, partial curve |
| `c1ccc([C@H]2CN3CCSC3=N2)cc1` | 31.62 | inhibitor, partial curve |
| `CC(C)c1ccc2c(c1)c(SC(C)(C)C)c(CC(C)(C)C(=O)O)n2Cc1ccc(Cl)cc1` | 3.162 | inhibitor, full curve |
| `COc1cc2c(cc1OC)-c1cc(=Nc3c(C)cc(C)cc3C)n(C)c(=O)n1CC2` | 22.39 | inhibitor, partial curve |
| `COCC(=O)O[C@]1(CCN(C)CCCc2nc3ccccc3[nH]2)CCc2cc(F)ccc2[C@@H]1C(C)C` | 19.95 | inhibitor, partial curve |
| `O=C1C(SCCO)=C(SCCO)C(=O)c2ccccc21` | 35.48 | inhibitor, partial curve |
| `CC(C)(C)[C@]1(O)CCN2CC3c4ccccc4CCc4cccc(c43)[C@@H]2C1` (stereo partly specified) | 25.12 | inhibitor, partial curve |
| `COc1cc2c(c(OC)c1OC)-c1ccc(OC)c(=O)cc1[C@@H](NC(C)=O)CC2` | 35.48 | inhibitor, partial curve |

3 of the entries, repeated:

{"smiles": "CC(C)c1ccc2c(c1)c(SC(C)(C)C)c(CC(C)(C)C(=O)O)n2Cc1ccc(Cl)cc1", "fitted potency (µM)": "3.162", "remark": "inhibitor, full curve"}
{"smiles": "COc1cc2c(c(OC)c1OC)-c1ccc(OC)c(=O)cc1[C@@H](NC(C)=O)CC2", "fitted potency (µM)": "35.48", "remark": "inhibitor, partial curve"}
{"smiles": "Brc1ccc([C@H]2CN3CCSC3=N2)cc1", "fitted potency (µM)": "39.81", "remark": "inhibitor, partial curve, poor fit"}